“And” between values parts separate entries of the source, which are not always exact repeats. Equal values may be shown once. About 5,400 (1.8%) of roughly 300,000 compounds were called active. Inconclusive results, whose numbers are uncertain, are shown with a selection of clear calls. Calls come from the whole dose curve; tested in HEK293 cells. A potency beside an inconclusive call is a rough fit, not a confirmed value.
Assay: qHTS for inhibitors of binding or entry into cells for Marburg Virus
Conditions: Marburg virus pseudotyped entry inhibition, cell reporter; series mostly up to 37.8 µM
Potency is the fitted concentration of half-maximal effect.

Row | SMILES | Potency
1 | c1ccc(Cn2nnc3c(N4CCCC4)ncnc32)cc1 | inconclusive: 10.3 µM [inhibitor, partial curve, poor fit]
2 | Cc1ccccc1OCC(=O)N(Cc1nc(-c2ccccc2)no1)C(C)C | inconclusive: 16.4 µM [inhibitor, partial curve, poor fit]
3 | FC(F)(F)Oc1ccc(NC(=S)Nc2ccccc2N2CCOCC2)cc1 | inconclusive: 11.2 µM [inhibitor, partial curve, poor fit]
4 | Cc1cc(/C=N/n2cnnc2)c(C)n1-c1ccc(OCc2ccc(Cl)cc2)cc1 | inconclusive: 5.01 µM [inhibitor, full curve, poor fit]
5 | Cn1c(SCC(=O)N2CCc3ccccc3C2)nnc1-c1cccs1 | inactive
6 | O=C(NCc1cccs1)C1CCCN1C(=O)Nc1ccccc1[N+](=O)[O-] (centres undefined) | inconclusive: 35.5 µM [inhibitor, single point]
7 | COc1ccccc1N1CCN(C(=O)c2cccc(C(=O)N3CCN(c4ccccc4OC)CC3)c2)CC1 | inconclusive: 39.8 µM [inhibitor, partial curve, poor fit]
8 | CSCCC(NS(=O)(=O)c1ccc(Cl)cc1)C(=O)OCc1c(Cl)cccc1Cl (centres undefined) | inconclusive: 20.6 µM [inhibitor, single point]
9 | Nc1c(C(=O)c2ccc(Br)s2)oc2ccccc12 | inconclusive: 7.3 µM [activator, partial curve, poor fit]
10 | COCCCNC(=O)C1CCN(C(=O)Nc2ccc(Cl)cc2)CC1 | inactive
11 | Cc1ccc(C)c(Nc2c([N+](=O)[O-])ccc3nonc23)c1 | inactive
12 | CC(C)c1ccc(S(=O)(=O)/N=C2/C=C(Sc3ncn[nH]3)C(=O)c3ccccc32)cc1 | inactive and inconclusive: 4.47 µM [inhibitor, full curve, poor fit]
13 | O=C(NCC(c1ccco1)N1CCCC1)c1ccc(Cl)cc1 (centres undefined) | inconclusive: 35.5 µM [inhibitor, single point]
14 | CC(=O)Nc1ccc(NC(=O)C(C)Sc2nc3nc(C)cc(C)n3n2)cc1 (centres undefined) | inconclusive: 6.31 µM [inhibitor, partial curve, poor fit]
15 | O=C(O)c1ccc(COc2ccc([N+](=O)[O-])cc2)o1 | inactive
16 | Cc1ccc(C(C)C)c(OCC(=O)N2CCC(c3nc4ccccc4o3)CC2)c1 | inactive
17 | Cc1nc(NCCc2ccc(O)cc2)c2nnn(Cc3ccccc3)c2n1 | inconclusive: 6.31 µM [inhibitor, partial curve]
18 | O=C(CSc1nc2ncc(Br)cc2[nH]1)Nc1ccc2c(c1)OCO2 | inconclusive: 2.82 µM [activator, partial curve, poor fit]
19 | CC(C)N[C@@H](C)Cc1ccc(I)cc1 | active: 16.4 µM
20 | CC1(C)CC(=O)C2=C(C1)OC(N)=C(C#N)C2C1CC=CCC1 (centres undefined) | inactive
21 | CC(C)CCNC(=O)C(=O)Nc1ccc2c(c1)N(S(=O)(=O)c1cccs1)CCC2 | inconclusive: 6.31 µM [inhibitor, partial curve, poor fit]
22 | COc1cc(NC(=S)NC(C)=O)ccc1NC(=O)C(C)C | inactive
23 | Cc1ccc(Cn2ncc3c(N4CCN(c5ccc(C)cc5)CC4)ncnc32)cc1 | inconclusive: 2 µM [inhibitor, partial curve, poor fit]

Row | SMILES | Potency
24 | COc1ccc(C(=O)N(Cc2ccc(C(C)C)cc2)C2CCS(=O)(=O)C2)cc1 (centres undefined) | inconclusive: 35.5 µM [inhibitor, single point]
25 | CCOC(=O)c1cc(-c2ccc(C)cc2)n(CCC(=O)NCCN(C)C)c1C | inconclusive: 29.1 µM [inhibitor, single point]
26 | Cc1ccc(Cn2ccc(NC(=O)c3cc(-c4ccco4)on3)n2)cc1 | inactive
27 | COc1ccc(C(=O)N/N=C/c2ccc(OC)c(COc3ccccc3)c2)cc1 | inconclusive: 20 µM [inhibitor, partial curve, poor fit]
28 | CC(=O)N1CCc2cc(N=NC3=C(O)CCCC3=O)ccc21 | inconclusive: 3.55 µM [activator, partial curve, poor fit]
29 | Cc1ccc(-n2nnnc2C(=Cc2ccc(N(C)C)cc2)c2nnnn2-c2ccc(C)cc2)cc1 | inconclusive: 32.6 µM [inhibitor, single point]
30 | CCCC[S@@](=N)(=O)CC[C@@H](N)C(=O)O | inactive
31 | Cc1ccc(S(=O)(=O)N2CCC(C(=O)OCC(=O)Nc3cc(S(C)(=O)=O)ccc3Cl)CC2)cc1C | inconclusive: 35.5 µM [inhibitor, single point]
32 | COc1ccc(N2C(=O)c3ccccc3NC2c2ccc(OC)c(CSc3ccccn3)c2)cc1 (centres undefined) | inconclusive: 0.58 µM [activator, full curve, poor fit]
33 | CN(Cc1ccccc1)C(=O)COC(=O)c1ccccc1Nc1ccccc1 | inconclusive: 3.98 µM [inhibitor, partial curve, poor fit]
34 | Cc1ccc(-n2c(SCC(=O)Nc3cccc(S(=O)(=O)NC4=NCCCCC4)c3)nc3ccccc3c2=O)cc1C | inactive
35 | COc1ccc2oc(C(=O)OCC(=O)NCC3CCCO3)c(C)c2c1 (centres undefined) | inactive
36 | Cc1cccc(-n2c(N)cc(=O)[nH]c2=S)c1C | inconclusive: 1.12 µM [activator, single point]
37 | Cc1ccc2nc(N/N=C/c3ccccc3C#N)nc(-c3ccccc3)c2c1 | active: 12.6 µM
38 | O=Cc1cn(Cc2ccccc2F)c2ccccc12 | inconclusive: 11.6 µM [inhibitor, partial curve]
39 | COCCCN(C(=S)NC(=O)c1ccc(Br)cc1)c1c(N)n(Cc2ccccc2)c(=O)[nH]c1=O | inconclusive: 0.1 µM [inhibitor, full curve, poor fit]
40 | CCOC(=O)c1ccc(NC(=O)c2ccccc2)cc1 | inconclusive: 1.64 µM [activator, partial curve]
41 | CCN(CC)CCn1c(NCc2nc3ccccc3n2Cc2ccccc2)nc2ccccc21 | inconclusive: 29.1 µM [inhibitor, single point]
42 | Cn1c(=O)nc2n(-c3ccc(Cl)c(Cl)c3)c3cc(Cl)ccc3cc-2c1=O | inactive
43 | Nc1[nH]n(-c2ccccc2)c(=O)c1N=Nc1ccccc1 | inconclusive: 16.4 µM [inhibitor, partial curve, poor fit]
44 | CC(=O)c1cn(CC(=O)NCc2ccc3c(c2)OCO3)c2ccccc12 | inconclusive: 8.91 µM [inhibitor, partial curve]
45 | COc1ccc(C(=O)Cn2cc[n+](C)c2)cc1 | inactive
46 | Cc1cc(/C=C2\C(=O)NC(=O)N(c3cccc(F)c3)C2=O)c(C)n1-c1cc(C(=O)O)cc(C(=O)O)c1 | inconclusive: 3.55 µM [activator, partial curve, poor fit]

5 structures already listed, ordered by number of heavy atoms, rising:
Row | SMILES | Potency
28 | CC(=O)N1CCc2cc(N=NC3=C(O)CCCC3=O)ccc21 | inconclusive: 3.55 µM [activator, partial curve, poor fit]
26 | Cc1ccc(Cn2ccc(NC(=O)c3cc(-c4ccco4)on3)n2)cc1 | inactive
24 | COc1ccc(C(=O)N(Cc2ccc(C(C)C)cc2)C2CCS(=O)(=O)C2)cc1 (centres undefined) | inconclusive: 35.5 µM [inhibitor, single point]
31 | Cc1ccc(S(=O)(=O)N2CCC(C(=O)OCC(=O)Nc3cc(S(C)(=O)=O)ccc3Cl)CC2)cc1C | inconclusive: 35.5 µM [inhibitor, single point]
46 | Cc1cc(/C=C2\C(=O)NC(=O)N(c3cccc(F)c3)C2=O)c(C)n1-c1cc(C(=O)O)cc(C(=O)O)c1 | inconclusive: 3.55 µM [activator, partial curve, poor fit]

Next compounds.

Row | SMILES | Potency
47 | CCN(c1ccccc1)S(=O)(=O)c1cccc(C(=O)NCC(c2ccco2)N2CCCCC2)c1 (centres undefined) | inconclusive: 12.6 µM [inhibitor, partial curve, poor fit]
48 | COc1ccc(/C(N)=N/OC(=O)Cc2ccc(C)cc2)cc1OC | inactive
49 | CS(=O)(=O)N(Cc1ccccc1)c1ccc(C(=O)Nc2ccccc2Sc2ccccc2)cc1 | inactive
50 | CCOc1ccc(C=NNc2ccc(S(=O)(=O)Nc3ccccc3C(=O)O)cc2[N+](=O)[O-])cc1OC | inactive
51 | COC(=O)Nc1ccc2c(c1)OCO2 | inactive
52 | Cc1ccc(S(=O)(=O)/C(C#N)=C/c2c(N3CCN(C)CC3)nc3ccccn3c2=O)cc1 | inactive
53 | Cc1c(NC(=O)C(C)OC(=O)CC2CC3CCC2C3)c(=O)n(-c2ccccc2)n1C (centres undefined) | inactive
54 | O=C(Nc1ccc(Oc2ccccc2)cc1)c1ccc(Cn2c(=O)[nH]c3ccsc3c2=O)cc1 | inactive
55 | COc1cc(C(C#N)N2CCCCC2)ccc1O (centres undefined) | inconclusive: 12.6 µM [activator, partial curve, poor fit]
56 | C/C(CC(=O)NC(C)(C)C)=N\NC(=O)COc1ccc(C)cc1Br | inactive
57 | CC(=O)c1c(C)n(-c2ccc(Cl)cc2)c2ccc(O)cc12 | inactive
58 | Cc1cc(C)n(-c2nnc(C)n2NS(=O)(=O)c2ccc(F)cc2)n1 | inconclusive: 8.2 µM [activator, partial curve, poor fit]
59 | Cc1cccc(C(=O)OCC(=O)N2CCCC2=O)c1O | inconclusive: 5.62 µM [inhibitor, partial curve, poor fit]
60 | N/C(=N\OC(=O)c1ccccc1[N+](=O)[O-])c1ccccn1 | inconclusive: 22.4 µM [inhibitor, single point]
61 | O=C(NCc1nc2ccccc2[nH]1)c1cccc(S(=O)(=O)N2CCCCC2)c1 | inactive
62 | Cc1ccc(NC(=O)CN(C)C(=O)C(c2ccccc2)c2ccccc2)cc1 | inconclusive: 17.8 µM [inhibitor, single point]
63 | COc1ccccc1N1CCNCC1 | inconclusive: 14.1 µM [inhibitor, single point]
64 | CC(C(=O)Nc1ccc(Br)cc1C(=O)c1ccccc1)N1CCCCC1 (centres undefined) | inconclusive: 29.1 µM [inhibitor, single point]
65 | COc1cccc(-c2nnc3sc(-c4ccccn4)nn23)c1 | inconclusive: 0.355 µM [activator, full curve, poor fit]
66 | Cc1c(NC(=O)CSc2cccc3cccnc23)c(=O)n(-c2ccccc2)n1C | inconclusive: 29.1 µM [inhibitor, single point]
67 | O=C1CS/C(=N/N=C/c2ccncc2)N1 | inactive
68 | CC(C)Cc1nnc(NC(=O)c2ccncc2)s1 | inactive
69 | Cc1[nH]n(-c2ccc(F)cc2)c(=O)c1/C=N/c1sc2c(c1C#N)CCCC2 | inconclusive: 1.26 µM [inhibitor, single point]
